Data as given in patent US20250051355A1, “COMPOUNDS, COMPOSITIONS, AND METHODS” (ACONCAGUA BIO, INC., priority 2023, published 2025).
The match of structure and compound is tentative.

Sequences of proteins named here, by UniProt entry; tags and fusion partners are left off. Residues count along the entry.
UniProt P30988, 25-474 limits assumed: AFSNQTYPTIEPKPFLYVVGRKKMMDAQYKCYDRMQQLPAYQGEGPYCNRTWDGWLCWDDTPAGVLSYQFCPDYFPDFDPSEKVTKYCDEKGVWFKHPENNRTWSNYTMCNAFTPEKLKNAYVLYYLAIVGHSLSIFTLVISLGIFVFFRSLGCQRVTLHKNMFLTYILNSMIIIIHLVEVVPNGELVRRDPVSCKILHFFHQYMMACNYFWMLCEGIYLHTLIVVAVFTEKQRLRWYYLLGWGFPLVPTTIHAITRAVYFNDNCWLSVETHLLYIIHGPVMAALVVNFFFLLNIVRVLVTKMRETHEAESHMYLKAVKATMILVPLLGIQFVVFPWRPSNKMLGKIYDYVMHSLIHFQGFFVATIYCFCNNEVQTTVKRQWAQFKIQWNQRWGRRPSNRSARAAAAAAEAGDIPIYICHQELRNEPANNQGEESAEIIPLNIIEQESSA
UniProt O60896, 24-148 partner limits assumed: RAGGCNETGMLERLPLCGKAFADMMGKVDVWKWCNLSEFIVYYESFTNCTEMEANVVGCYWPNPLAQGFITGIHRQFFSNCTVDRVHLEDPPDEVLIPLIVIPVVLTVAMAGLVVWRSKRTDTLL

Columns and labels:
[1] = biological target: human calcitonin receptor (CTR) (Homo sapiens, UniProt P30988); assay: Calcitonin receptor (CTR) cAMP Assay; settings: read-out: Calcitonin Receptor cAMP Stimulation Activity: EC50; COS7-human CTR Clone #2 cells, cAMP dynamic 2 kit
From the text: Calcitonin receptor (CTR) cAMPAssay
The calcitonin receptor (CTR) belongs to the subfamily of GPCRs known as the secretin or ‘B’ family of GPCRs. Like other class B1 GPCRs, the CT receptor family is canonically coupled to Gs-mediated cAMP production, and measurement of cAMP accumulation has been the primary assay used to determine peptide selectivity and potency.
To optimize functional activity directed toward Gas coupling, COS-7 cells were stably transfected with human calcitonin receptor (CTR) to create COS7-human CTR Clone #2 stable cell line. 100× concentration of compound working solutions were prepared with 4-fold serial dilution in 384-well Echo LDV plate (Labcyte, Cat #LP-0200-BC). 200 nL/well 100×concentration of compound working solutions were moved to 384-well white microplate (Perkin Elmer, Cat #6007680) using Labcyte ECHO550. […]
(§1) After incubation, the cAMP assay signal was generated using cAMP dynamic 2 kit (Revvity, Cat #62AM4PEC). 10 L cAMP-d2 working solution was added to each well, followed by 10 μL Anti-cAMP antibody-cryptate working solution which was added to each well using CERTUS FLEX LIQUID DISPENSER The samples were then incubated at room temperature for 1 hour protected from light. the fluorescence was read at 665 and 615 nm with Reader PerkinElmer EnVision 2105.

[2] = biological target: human calcitonin receptor (CTR) and RAMP3 (AMY3) (Homo sapiens, UniProt O60896+P30988); assay: Amylin Receptor cAMP Assay II; settings: read-out: Amylin Receptor cAMP Stimulation Activity: EC50, COS-7/AMY3 cells, cAMP dynamic 2 kit
From the text: Amylin Receptor cAMPAssay II
AMYRs are heterodimers of the class B calcitonin (CT) G-protein-coupled receptor (CTR) and receptor activity-modifying proteins (RAMPs). All three RAMPs can interact with the CTR and form AMY1, AMY2, AMY3 with RAMP1, RAMP2 and RAMP3, respectively. Like other class B1 GPCRs, the CT receptor family is canonically coupled to Gs-mediated cAMP production, and measurement of cAMP accumulation has been the primary assay used to determine peptide selectivity and potency.
To optimize functional activity directed toward Gas coupling, COS-7 cells were stably transfected with human calcitonin receptor (CTR) and RAMP3, simultaneously. 100×concentration of compound working solutions were prepared with 4-fold serial dilution in 384-well Echo LDV plate (Labcyte, Cat #LP-0200-BC). […]
as §1, with “10 μL” for “10 L”

SMILES | EC50 [1] | EC50 [2]
Cc1cc(-c2c(CCC34CCC(CC3)OC4)nc3c(c2-c2ccc4c(c2)oc(=O)n4Cc2ccc(C#N)cn2)C(=O)N2CCC[C@@H]32)ccn1 | 0.75 nM | 48.7 nM
Cc1nnc(-c2c(COc3ccc(F)cc3)nc3c(c2-c2ccc(C(=O)N[C@@H]4CCc5ncccc54)s2)C(=O)N2CCC[C@@H]32)o1 [Compound 32, N—[(R)-4-aza-1-indanyl]-5-{(2S)-11-[(p-fluorophenoxy)methyl]-10-(5-methyl-1,3,4-oxadiazol-2-yl)-7-oxo-6,12-diazatricyclo[6.4.0.0^2,6]dodeca-1(8),9,11-trien-9-yl}-2-thenamide] | 194 nM | –
